Laboratory results taken from PubChem BioAssay AID493014 (National Center for Advancing Translational Sciences (NCATS), 2011).
The other results are listed elsewhere or left out. The main result of the screen is listed elsewhere. These columns were measured beside it and carry no call. The list favours compounds with an active or inconclusive main result. Words in brackets tell the shape of the fitted curve; partial curves, single points and poor fits give uncertain potencies.

Test: qHTS Assay to Find Inhibitors of Chronic Active B-Cell Receptor Signaling
Settings: ABC-DLBCL IkBa-CBG/CBR reporter, luminescence ratio (green luciferase fused to IkBa over red control in TMD8 lymphoma cells), 4 h
Outline: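 Cell line TMD8 (human ABC DLBCL), stably expressing tet-inducible CBG68-IkBa fusion and CBR; IMDM/0.5% FBS; cpd up to 46 uM; dox induction, 4 h, 37C/5% CO2; dual luminescence; green/red ratio; MG132 control.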

[1] = measured here: CBR red luminescence, cell number
[2] = measured here: IkBa-CBG green luminescence

Structure (SMILES) | AC50 [1] | AC50 [2]
Cc1ccc(C(=O)COC(=O)c2ccco2)cc1C | 2.51 µM [rising, full curve, poor fit] | 
CCn1cc(CN2CCN(C)C(CCO)C2)c2ccccc21 (stereo not given) | 2 µM [rising, full curve, poor fit] | 
CCN(CC)c1nc(OCCNC(=O)Nc2ccccc2)nc(N(CC)CC)n1 | 18.4 µM [falling, single point] | 32.6 µM [rising, partial curve, poor fit]
COc1ccc(C)cc1NC(=O)C(Sc1nnc(Nc2ccccc2F)s1)c1ccccc1 (stereo not given) |  | 29.1 µM [rising, partial curve, poor fit]
COCC(C)NCc1ccc(C)cc1C (stereo not given) | 29.1 µM [rising, single point] | 
Clc1cccc(-c2nn3c(Cn4cnc5ccccc54)nnc3s2)c1 | 0.00517 µM [falling, full curve, poor fit] | 
Cc1ccc2nc3sc(-c4nnc(-c5ccccc5[N+](=O)[O-])o4)c(N)c3cc2c1 | 2.31 µM [falling, partial curve] | 
NC(=S)N/N=C/c1coc2ccc(O)cc2c1=O | 0.891 µM [rising, full curve, poor fit] | 0.631 µM [rising, full curve, poor fit]
CCOc1ccc(CN2CCN(Cc3cccn3-c3ncccn3)CC2CCO)cc1 (stereo not given) | 35.5 µM [falling, partial curve, poor fit] | 
O=C(c1ccc(S(=O)(=O)Nc2ccccc2)cc1)N1CCC1 | 11.6 µM [rising, partial curve] | 
CCOC(=O)Cn1c(=O)c2c(nc3n2CC(C)CN3Cc2ccccc2)n(C)c1=O (stereo not given) | 7.08 µM [falling, partial curve, poor fit] | 
COc1ccc(-c2csc(N3CCN(c4cc(C)nc5ccccc45)CC3)n2)cc1OC | 22.4 µM [falling, single point] | 
O=C(O)C1CCCN(S(=O)(=O)Cc2ccccc2)C1 (stereo not given) | 35.5 µM [rising, single point] | 
N#C/C(=C/c1ccc(N2CCOCC2)o1)c1ccc(Cl)cc1 | 0.891 µM [falling, full curve, poor fit] | 
O=C(NCCC1=CCCCC1)c1ccc(F)cc1 | 29.1 µM [falling, single point] | 
CN1CCN(CCNC(=O)Nc2ccc([N+](=O)[O-])cc2)CC1 | 35.5 µM [rising, single point] | 
Cc1ccccc1CSCC(=O)NCc1ccco1 | 14.6 µM [rising, partial curve, poor fit] | 
COc1ccc(/C=C/C(=O)NC(=S)NNC(=O)c2cnccn2)cc1 | 10 µM [rising, single point] | 

Entries of single compounds as entered above:
Cc1ccc2nc3sc(-c4nnc(-c5ccccc5[N+](=O)[O-])o4)c(N)c3cc2c1 as listed: AC50 [1]: 2.31 µM [falling, partial curve]
CCn1cc(CN2CCN(C)C(CCO)C2)c2ccccc21 (stereo not given) as listed: AC50 [1]: 2 µM [rising, full curve, poor fit]
